The source of these data is PubChem BioAssay AID1347426 (Functional Genomics Laboratory (NCATS/FGL), 2020).

The whole screen tested about 31,000 sequences, of which about 1,400 (4.5%) were called active.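 How the source made its calls: active means median seed-adjusted z-score above 1 or below -1; inactive means the rest.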 Some of the results follow.

This assay in a line: Novel Modifiers of Survival Motor Neuron (SMN) Protein: Gene Identification via Genome-wide siRNA Screen.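 Further: luminescence tracks full-length SMN protein made from the SMN2 reporter.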 As to conditions: HEK293T SMN2-luciferase reporter, siRNA knockdown, 72 h; actives lie on both sides. In short, it runs like this: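 Each of three siRNAs per gene is reverse-transfected (1 pmol) into reporter HEK293T cells whose luciferase output tracks SMN protein level. After 72 h culture, ONE-Glo luminescence is control-normalized, log10-transformed and MAD-standardized; Common Seed Analysis deprioritizes seed-driven hits.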
In general terms: Reporter assays use an easily measured gene product as a stand-in for the process of interest.
For the sequence CACCAGACCUAGUCUUUAATT against NR3C2, the median seed-adjusted z-score was inactive: -0.0918.
As for GGAUCAGCUGUGAAGAGUATT against RGS4, the median seed-adjusted z-score is inactive: 0.
With GAGAUUUACCGCAUUGUUUTT against RAB11A the figure was inactive: -0.0554; with GAGCAUUGGUUGCAUCUUUTT against CDK3, inactive: 0.000485; with GCAUUGGAAGUGAAAACAATT against FCAMR, inactive: 0.137.
With CAUUCGCAAAGGAUCGUGATT against PAPSS2 the figure was inactive: -0.201; with CAUGUGCUAUCGAAAGUAUTT against TCEB1, active: 1.08; with UAGCUACUUCGAUUCUUUUTT against PLA2G12B, inactive: -0.162.
With GUAUGGUGAUGAUCGAAUUTT against KIFAP3 the figure was inactive: 0.403.
Regarding GGUGGAAAACGGCAAAGUUTT against B3GAT2, the median seed-adjusted z-score is inactive: 0.33.
With GCGUAUGGGAUUACAAGAATT against PAFAH1B1 the figure was inactive: 0.391; with CAGCCUACCUGGUUGUAGATT against VARS2, inactive: 0.288.
In the case of GAGCUUCUGUUGAACGGCATT against POLR3C it was inactive: -0.294.
With GGAUCUUCGUGAAGUAUUUTT against TRA2A the figure was inactive: -0.187; with AGACAUUACUUCCAAAACATT against GALNTL2, inactive: 0.164; with AGCUCAACGUGCUGGAUUATT against PIP5KL1, inactive: -0.819.
As to AGAAUUCUUCGAUCACAAATT against KCNMB3, the median seed-adjusted z-score was inactive: 0.513.
With CGAGCUAGUUGAUGACCAUTT against TSEN2 the figure was inactive: 0; with GGAACCUAAUUAUCUGCAUTT against KMO, inactive: 0.443.
As for GGUGCAGAUUGAUCAGAUUTT against PLSCR3, the median seed-adjusted z-score is inactive: 0.
As to CGUCGUGACUUGAGGAUAATT against DYNC1H1, the median seed-adjusted z-score was inactive: 0.
In the case of CAGCCUACUUCAUAGCCUATT against GPR50 it was inactive: -0.0348.
With CCGACGUGGUGGUAUACAATT against HDAC11 the figure was inactive: 0.259.
With UGAGAAUUGUGGAUCCGGATT against CSTF2 the figure was inactive: 0.586; with CCACCUACACUGUCCGUGUTT against COL20A1, inactive: -0.0033.
Consider GAUACAGUCUACGCAGUUATT against ATPAF1, for which the median seed-adjusted z-score was inactive: 0.393.
With CUCUUUGACGUGUCUCAUATT against AMT the figure was inactive: -0.506; with GCUAAACAUUGGAUACAUATT against SERPINB2, inactive: -0.0739; with GGUCAAACAAUGUCGCUUUTT against COPB2, inactive: -0.61.
With GCAAAUACCCAACCCUCAATT against TXNDC4 the figure was inactive: 0.351.
In the case of GCUAUAAACUUAUUAGGCATT against ZNF180 it was inactive: 0; in that of GCAUUUGUCUGUUUGAUAUTT against POLR3H, inactive: 0.
GACCGUCACCAUUAAGGAATT against CBX8: the median seed-adjusted z-score was inactive: -0.207.
In the case of GGAAAAUGAAUUCAGAGGATT against DIABLO it was inactive: 0.913.
Consider ACACUGAUCUGACUACCAUTT against LRRC15, for which the median seed-adjusted z-score is inactive: -0.723.
In the case of GUACUUCCUCAAUCACAUATT against WWTR1 it was inactive: -0.579.
In the case of CCUACCAUCUUGGAUAGAATT against RAB33B it was inactive: -0.758; in that of GAAGGAGUAUUCGUGAUUATT against DIS3L, inactive: 0.
With GGACAUCGCACUGAUCUUUTT against PIGK the figure was inactive: -0.456; with GGAACGAAGAGAACUAGAATT against OFD1, inactive: 0; with GGUUGACAGUUACCGAAUUTT against ACACB, inactive: 0.31.
Consider GAAGCAAGAAGUUCGGGAATT against CETN1, for which the median seed-adjusted z-score was inactive: 0.236.
For GGAUGCUCCGGACCUGUUATT against PRODH2, the median seed-adjusted z-score was inactive: 0.817.
With AGACUCAGAUCAUGCUGAATT against KLRC3 the figure was inactive: 0.833; with CCAUCCAUACAUUAGGUUUTT against MMP27, inactive: -0.084.
With GGAUCACUCAUACUAGGGATT against ZNF473 the figure was inactive: -0.166.
Take GCACGACUUUCACCACGUATT against RAX: the median seed-adjusted z-score is inactive: -0.176.
In the case of CCUUGUGCCUUGCAACUCUTT against LPAR4 it was inactive: -0.321; in that of GGGACUUGCUGAUUCAAGATT against GIP, inactive: 0; in that of CGAUGUCAGUAGGAACCUUTT against PSMC1, active: -2.23.
For GCAUUUCUCCUGUUUGACATT against MYL1, the median seed-adjusted z-score is inactive: 0.24.
With CCAAGAAACUGCGAGACAATT against CNGA2 the figure was inactive: -0.0447; with GGAGAAUACCCUCCAGGAATT against CNOT7, inactive: 0.716.
With GCAAGAUCAUCGCAGAGAATT against TOR1A the figure was inactive: -0.231.
On to GCACCCAACCUGUCCAUCATT against PRPF31, for which the median seed-adjusted z-score is inactive: -0.592.
On to GGAUAUUGGUCAGCGGCAATT against SPTB, for which the median seed-adjusted z-score was inactive: 0.153.
With GCUUGUUACUGAACUUCGATT against HACE1 the figure was inactive: 0; with GUGAUAUCAUUGAGCCUAATT against PPARD, inactive: 0.0283; with GGCUGACACUCACGAUGAATT against SERPINA1, inactive: 0.00292.
With CAAUGAAGACUGAUGUAUUTT against SLC9A2 the figure was active: -1.02; with CACCAGCUUCGGACCAUGATT against LHX2, inactive: 0.464.
In the case of GGAUACUCCCUGCAUGAUATT against GPR34 it was inactive: 0.529; in that of GCAACAACGUGUCCUUCGATT against GPR132, inactive: 0.
As for AGAAAAUUACCAUGCAGAATT against KRT15, the median seed-adjusted z-score is inactive: 0.756.
In the case of GCAUCUUUUGGAGAUCGAATT against TC2N it was inactive: 0.461; in that of CGGAUACGCUAAAAAUCAATT against B3GNTL1, inactive: 0; in that of GGUCUAGCCUGGGUAUGAATT against PLA2G2F, inactive: 0.508.
Turning to GACACUUGCUUAGAAGUAATT against LRP12, the median seed-adjusted z-score is inactive: 0.416.
On to GUCCAGAUCUUAUUACCUATT against ABLIM1, for which the median seed-adjusted z-score is inactive: 0.115.
In the case of GGACAAUGAUGGGUUCCCATT against ITGA9 it was inactive: 0; in that of GGAUCUGGUUCAACUUGGATT against FUT3, inactive: 0.11; in that of AGCUAGCUACGAAUCCAAATT against FOXRED2, inactive: 0.0294.
In the case of CGUGCUCAACAGCAAAGAATT against PIGL it was inactive: 0.827; in that of CUUUAAAGAUUGGAAUAAUTT against LOC730394, inactive: -0.226.
In the case of GAUCUUCACUAAUCGAAGATT against VLDLR it was inactive: 0.0487.
For the sequence CACAAUGUCUUCAACCUGATT against AMIGO1, the median seed-adjusted z-score is inactive: 0.175.
On to GGCUUAUGGAGAUAUGAAUTT against PPFIA2, for which the median seed-adjusted z-score is inactive: 0.176.
With GCAGUAAGCCCAGAUAGCATT against ZNF808 the figure was inactive: 0.138.
In the case of GAACUUUCCUGUUACCUUUTT against CD81 it was inactive: 0; in that of GCUCAUCGCUCACAACCAATT against ERBB2, inactive: 0.158; in that of CCGGUCAAGUGAACAAGUUTT against TTLL11, inactive: 0.00825.
With GUUCAACACUUCAAGGUCATT against GRAP2 the figure was inactive: 0.296; with GCACAAGACCAGUUGCACATT against BBS4, inactive: -0.0339; with GGACUUUGAUGAGUGCUAUTT against ACPP, inactive: 0.311.
For the sequence GGGCUGCACCAAAGCCUAUTT against KLF14, the median seed-adjusted z-score was inactive: 0.0241.
With GUAUGAUUGGAACUGCUGATT against HIBADH the figure was inactive: 0.234; with CACAUGCAAUGUAAUCUUATT against SNX19, inactive: 0.67; with CCAUCGCAGUAUAUGAGGATT against SORCS1, inactive: -0.123.
In the case of CCUCAAUGAUGAGCGGGUATT against CST2 it was inactive: -0.411.
For the sequence CUACUACAGUGACACGAAATT against ROS1, the median seed-adjusted z-score was inactive: -0.0561.
For the sequence CGACAAUGUUAAGUUCAUATT against SULT6B1, the median seed-adjusted z-score is inactive: 0.
In the case of GACUGAGAGUUCAACCGAATT against MATR3 it was inactive: -0.259; in that of GAAUACGCCUUGAUAUUCATT against PIGR, inactive: -0.35.
GGAUGAAGCUCUGAGCUAUTT against ALG5: the median seed-adjusted z-score was inactive: 0.286.
In the case of GAGUGAAACAGGAUAAGAUTT against ST3GAL1 it was inactive: 0.255.
In the case of GGACAACAGUCGGUCGAAUTT against ANP32C it was inactive: -0.421; in that of CACGUGCUCUCUACGGUUATT against GPR116, inactive: 0; in that of GCGAAUUCAUAAGUCCAUUTT against MTMR9, inactive: 0.133.
With GCACCAAUUCUAUAGGCAUTT against PTPRA the figure was inactive: -0.438.
CUCCAGGAGUGAUCCAAAATT against FOXN3: the median seed-adjusted z-score was inactive: -0.636.
In the case of GCACCAUAGAUGUUAAAGATT against CETN2 it was inactive: -0.0139.
With CAGCGGCUACGAGUACUAATT against TCEB3 the figure was inactive: 0.232.
In the case of CCCUAGAACUGGAUCAUAATT against DNAJC7 it was inactive: 0.268; in that of GGGAUGAUUCAGACAAACATT against ZC3HAV1, inactive: 0.522; in that of GCUUAAGACGAAGCAAAAATT against KIF22, inactive: 0.283.
For CAAAUGUUGUGAAGAAGUATT against GNGT1, the median seed-adjusted z-score is inactive: -0.0382.
With GCUUGUUGAUGGACAAGAATT against UBA3, the median seed-adjusted z-score was inactive: 0.605.
Take GUAGCAUACCCAUCUAUAATT against NAB1: the median seed-adjusted z-score is inactive: -0.67.
